Measurements reported in article PMC3248451.
These are yes or no findings as the source states them, for the method shown. Binding seen in cells or lysates may run through a third protein. Some entries that bind do so weakly or less than the wild type.

By UniProt entry, the sequences of proteins in these tests, tags left out.
UniProt Q14457: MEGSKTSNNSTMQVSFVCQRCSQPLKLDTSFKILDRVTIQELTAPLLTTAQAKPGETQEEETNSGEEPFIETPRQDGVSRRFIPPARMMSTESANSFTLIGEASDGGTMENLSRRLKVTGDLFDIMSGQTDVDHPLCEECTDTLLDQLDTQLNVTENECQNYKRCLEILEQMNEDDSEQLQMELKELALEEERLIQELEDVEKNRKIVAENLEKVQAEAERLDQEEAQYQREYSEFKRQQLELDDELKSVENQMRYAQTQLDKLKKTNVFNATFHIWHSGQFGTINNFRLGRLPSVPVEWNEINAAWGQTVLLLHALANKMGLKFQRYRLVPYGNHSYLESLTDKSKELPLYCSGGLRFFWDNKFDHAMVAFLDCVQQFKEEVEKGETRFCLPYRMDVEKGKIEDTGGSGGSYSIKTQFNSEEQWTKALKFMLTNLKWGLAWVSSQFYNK
UniProt P10415: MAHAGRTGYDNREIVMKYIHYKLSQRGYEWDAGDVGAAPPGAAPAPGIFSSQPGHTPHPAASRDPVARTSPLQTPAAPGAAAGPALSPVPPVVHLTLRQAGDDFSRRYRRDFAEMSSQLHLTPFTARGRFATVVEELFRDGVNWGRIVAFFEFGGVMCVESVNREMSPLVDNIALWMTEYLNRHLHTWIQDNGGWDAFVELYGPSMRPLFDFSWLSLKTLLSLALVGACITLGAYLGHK

Assays:
[1] = biological target: T1, E1B19K, the adenovirus BH3 domain protein, expressed from the infecting adenovirus (adenovirus (serotype not given)) (UniProt P03246); experiment: co-IP
T1 sequence: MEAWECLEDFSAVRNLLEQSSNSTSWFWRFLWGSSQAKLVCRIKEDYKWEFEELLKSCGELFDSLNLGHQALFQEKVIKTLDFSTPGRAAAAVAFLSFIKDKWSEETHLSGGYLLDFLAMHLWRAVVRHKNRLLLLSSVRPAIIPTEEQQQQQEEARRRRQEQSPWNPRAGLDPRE

[2] = biological target: Beclin 1 (endogenous) (human (endogenous in HeLa)) (UniProt Q14457); experiment: co-IP
[3] = biological target: T2, wild-type E1B19K expressed from pcDNA.E1B19K (adenovirus (serotype not given)) (UniProt P03246); experiment: co-IP; HeLa cells transiently co-transfected with plasmids for wild-type or mutant E1B19K and wild-type (Flag-)Beclin 1; lysates collected 48 h later; IP and immunoblot
T2 sequence: T1 sequence

binding [2] | Substance | binding [1] | binding [3]
– | Beclin 1 (endogenous) (from UniProt Q14457 1-450) | binds | –
binds | Bcl-2 (endogenous) (from UniProt P10415 1-239) | – | –
– | Flag-Beclin 1 (from UniProt Q14457 1-450) | binds | binds
